Measurements reported in paper PMC6881322.
No constants are given. Whether binding was seen depends on the method and setting. Binding seen in cells or lysates may run through a third protein. Some results given as binding are weak or reduced against the parent protein; the word gives no strength.

Protein sequences, listed by entry. Tags and fused reporters are not part of them. Residues count along the entry.
UniProt P35968, residues 20-1356: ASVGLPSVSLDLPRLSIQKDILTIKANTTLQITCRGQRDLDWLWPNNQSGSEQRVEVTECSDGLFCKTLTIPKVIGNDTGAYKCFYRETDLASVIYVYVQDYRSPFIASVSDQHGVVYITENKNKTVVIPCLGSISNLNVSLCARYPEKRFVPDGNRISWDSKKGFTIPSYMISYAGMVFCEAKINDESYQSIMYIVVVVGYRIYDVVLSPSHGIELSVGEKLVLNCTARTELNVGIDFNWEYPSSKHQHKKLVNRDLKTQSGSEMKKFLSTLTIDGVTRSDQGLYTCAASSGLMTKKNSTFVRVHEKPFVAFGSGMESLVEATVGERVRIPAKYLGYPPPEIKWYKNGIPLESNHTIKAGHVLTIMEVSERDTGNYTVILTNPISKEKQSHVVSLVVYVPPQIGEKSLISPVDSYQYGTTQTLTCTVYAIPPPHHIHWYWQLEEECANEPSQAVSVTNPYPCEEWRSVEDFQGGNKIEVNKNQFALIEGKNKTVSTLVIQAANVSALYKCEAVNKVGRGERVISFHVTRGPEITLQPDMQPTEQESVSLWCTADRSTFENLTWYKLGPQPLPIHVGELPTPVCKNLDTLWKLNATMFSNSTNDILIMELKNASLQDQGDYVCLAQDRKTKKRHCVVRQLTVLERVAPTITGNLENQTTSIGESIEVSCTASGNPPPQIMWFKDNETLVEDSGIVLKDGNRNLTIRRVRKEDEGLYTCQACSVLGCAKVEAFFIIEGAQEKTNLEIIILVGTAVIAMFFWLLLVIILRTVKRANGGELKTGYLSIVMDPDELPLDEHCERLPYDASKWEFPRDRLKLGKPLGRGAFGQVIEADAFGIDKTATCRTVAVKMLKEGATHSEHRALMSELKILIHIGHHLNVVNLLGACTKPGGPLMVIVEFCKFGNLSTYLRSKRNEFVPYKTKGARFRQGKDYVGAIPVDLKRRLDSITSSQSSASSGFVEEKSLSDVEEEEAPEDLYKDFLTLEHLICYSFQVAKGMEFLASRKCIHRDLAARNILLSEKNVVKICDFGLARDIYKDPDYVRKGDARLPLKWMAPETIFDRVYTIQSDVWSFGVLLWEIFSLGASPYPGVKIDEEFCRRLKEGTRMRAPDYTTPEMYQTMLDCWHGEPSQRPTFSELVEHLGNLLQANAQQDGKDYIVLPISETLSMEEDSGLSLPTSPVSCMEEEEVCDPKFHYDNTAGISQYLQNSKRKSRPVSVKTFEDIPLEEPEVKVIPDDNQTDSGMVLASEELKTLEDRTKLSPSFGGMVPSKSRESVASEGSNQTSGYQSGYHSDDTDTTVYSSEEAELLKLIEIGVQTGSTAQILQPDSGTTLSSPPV
UniProt P78310, residues 20-365: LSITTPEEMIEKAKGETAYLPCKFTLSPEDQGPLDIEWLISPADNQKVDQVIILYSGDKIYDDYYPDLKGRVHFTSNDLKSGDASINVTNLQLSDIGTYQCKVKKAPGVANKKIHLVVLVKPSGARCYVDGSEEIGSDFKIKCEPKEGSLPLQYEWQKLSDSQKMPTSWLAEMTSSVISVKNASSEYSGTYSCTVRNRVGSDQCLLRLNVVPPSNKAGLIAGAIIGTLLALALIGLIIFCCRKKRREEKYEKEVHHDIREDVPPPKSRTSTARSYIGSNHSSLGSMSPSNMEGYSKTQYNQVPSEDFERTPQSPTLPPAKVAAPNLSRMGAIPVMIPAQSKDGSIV

How the values were obtained:
[1] = biological target: T1, vascular endothelial cadherin (human (endogenous in HUVECs)) (UniProt P33151); assay: proximity ligation; Duolink in situ PLA on fixed HUVECs exposed to OSS (disturbed flow) for 24 h; endogenous proteins stained with anti-CAR and anti-VEGFR2, anti-VE-cadherin or anti-PECAM-1; siCAR-transfected cells as negative control
T1 sequence: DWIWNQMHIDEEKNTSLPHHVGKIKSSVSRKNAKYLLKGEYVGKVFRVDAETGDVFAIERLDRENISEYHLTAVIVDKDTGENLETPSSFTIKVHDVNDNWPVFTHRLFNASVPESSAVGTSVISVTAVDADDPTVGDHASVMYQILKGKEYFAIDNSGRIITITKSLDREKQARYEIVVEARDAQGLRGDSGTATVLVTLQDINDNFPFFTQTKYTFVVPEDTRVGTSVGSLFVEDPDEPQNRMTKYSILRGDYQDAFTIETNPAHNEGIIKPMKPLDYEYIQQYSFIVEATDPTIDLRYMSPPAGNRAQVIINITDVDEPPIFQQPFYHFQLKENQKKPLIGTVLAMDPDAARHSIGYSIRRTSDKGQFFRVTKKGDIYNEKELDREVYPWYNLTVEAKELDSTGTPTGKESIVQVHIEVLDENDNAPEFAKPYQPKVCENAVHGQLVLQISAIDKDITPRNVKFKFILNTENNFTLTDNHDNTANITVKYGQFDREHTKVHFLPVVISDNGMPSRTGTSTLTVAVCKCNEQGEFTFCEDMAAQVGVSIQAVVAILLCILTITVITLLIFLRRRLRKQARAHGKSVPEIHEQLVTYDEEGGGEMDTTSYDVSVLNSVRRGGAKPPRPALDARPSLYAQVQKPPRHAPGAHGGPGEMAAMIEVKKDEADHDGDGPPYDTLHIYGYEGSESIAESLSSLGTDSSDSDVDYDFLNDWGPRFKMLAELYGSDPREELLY

[2] = biological target: vascular endothelial growth factor receptor 2 (human (endogenous in HUVECs)) (UniProt P35968); assay: as above

coxsackievirus and adenovirus receptor (from UniProt P78310 20-365)
binding [1]: binds | binding [2]: binds
